Experimental data: US20200008426A1, “ACTIVE COMPOUND COMBINATIONS” (BAYER AKTIENGESELLSCHAFT, priority 2017, published 2020)
At least one read-out could not be matched to a standard name with certainty.

Tested on: Septoria tritici
Assay: In vivo preventive Septoria tritici test (wheat)
Details: 21 days after inoculation
Description: After the spray coating has been dried, the plants are sprayed with a spore suspension of Septoria tritici.
The test is evaluated 21 days after the inoculation.

## CC1CC(C)(C)c2cccc(NC(=O)c3cn(C)nc3C(F)F)c21 (stereo not shown) [Example 2.027, 3-(difluoromethyl)-1-methyl-N-(1,1,3-trimethyl-2,3-dihydro-1H-inden-4-yl)-1H-pyrazole-4-carboxamide]
62.5 ppm a.i.
  Efficacy in % found: 29%
125 ppm a.i.
  Efficacy in % found: 43%

## COc1ccnc(C(=O)N[C@H]2COC(=O)[C@H](Cc3ccccc3)[C@@H](OC(=O)C(C)C)[C@H](C)OC2=O)c1OCOC(=O)C(C)C [Example 3.025, (3S,6S,7R,8R)-8-benzyl-3-[({3-[(isobutyryloxy)methoxy]-4-methoxypyridin-2-yl}carbonyl)amino]-6-methyl-4,9-dioxo-1,5-dioxonan-7-yl 2-methylpropanoate]
37.5 ppm a.i.
  Efficacy in % found: 14%
150 ppm a.i.
  Efficacy in % found: 71%
